This note sets out measurements from the supplement of paper PMC4604168 (melanoma cell lines).

Some of the results follow. Single values are uncertain, as repeats are few or missing.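 Imaging used 1,536-well plates; nuclei positive for cleaved PARP by antibody were divided by total DNA-stained nuclei to yield the apoptosis fraction. Doses for screening kept most cells viable, and cell lines differ markedly in resting and induced cleaved-PARP levels.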

For the test, the system named is IPC-298. As to the kind of experiment: cleaved PARP positive nuclei fraction relative to DMSO control; melanoma cells; higher = more apoptosis. The note with it: library dose: low library concentration; 72 h.
For `NC1(c2ccc(-c3nc4ccn5c(=O)[nH]nc5c4cc3-c3ccccc3)cc2)CCC1` + Cc1cc([N+](=O)[O-])ccc1NS(=O)(=O)c1cc(Cl)ccc1Cl [FH535] (first compound 0.4 µM, partner dose 1 µM), the “cleaved PARP positive nuclei fraction” value amounted to 169%.
On to `NC1(c2ccc(-c3nc4ccn5c(=O)[nH]nc5c4cc3-c3ccccc3)cc2)CCC1` + O=S(=O)(c1ccccc1)N(CC(F)(F)F)c1ccc(C(O)(C(F)(F)F)C(F)(F)F)cc1 [T0901317] (first compound 0.4 µM, partner dose 1.4 µM), for which the “cleaved PARP positive nuclei fraction” value worked out at 102%.
Then `CS(=O)(=O)c1ccc(C(=O)Nc2ccc(Cl)c(-c3ccccn3)c2)c(Cl)c1` [vismodegib] + Oc1cc(-c2nc(-c3ccccc3)[nH]c2-c2ccncc2)ccc1Cl [L779450] (first compound 1 µM, partner dose 0.2 µM), with 66.7%; and `C[C@]1(O)C[C@@H](c2nc(-c3ccc4ccc(-c5ccccc5)nc4c3)c3c(N)nccn32)C1` + CC(C)CCN1c2nc(Nc3cc(F)c(O)c(F)c3)ncc2N(C)C(=O)C1C [BID1870] (first compound 0.4 µM, partner dose 0.2 µM), with 35.1%.
As to `Cn1cnc2c(F)c(Nc3ccc(Br)cc3Cl)c(C(=O)NOCCO)cc21` [selumetinib] + CC(C)CCN1c2nc(Nc3cc(F)c(O)c(F)c3)ncc2N(C)C(=O)C1C [BID1870] (first compound 0.015 µM, partner dose 0.2 µM), the “cleaved PARP positive nuclei fraction” value was determined as 77.6%.
For `C[C@]1(O)C[C@@H](c2nc(-c3ccc4ccc(-c5ccccc5)nc4c3)c3c(N)nccn32)C1` + CCN(CC)CCCCNc1ncc2cc(-c3cc(OC)cc(OC)c3)c(NC(=O)NC(C)(C)C)nc2n1 [PD173074] (first compound 0.4 µM, partner dose 0.1 µM), the “cleaved PARP positive nuclei fraction” value is 48%.
The value for `CCCCCCCCc1ccc(CCC(N)(CO)CO)cc1` [fingolimod] + Cn1cc(/C=C2\C(=O)Nc3cccnc32)c2ccccc21 [GW441756] (first compound 2 µM, partner dose 0.4 µM) was 60.8%; that for `CS(=O)(=O)c1ccc(C(=O)Nc2ccc(Cl)c(-c3ccccn3)c2)c(Cl)c1` [vismodegib] + COc1ccc(COc2ccc(Cc3cnc(N)nc3N)cc2OC)cc1 [GW2580] (first compound 1 µM, partner dose 1 µM) was 45.5%; that for `CC(=O)O[C@@]12CO[C@@H]1C[C@H](O)[C@@]1(C)C(=O)[C@H](O)C3=C(C)[C@@H](OC(=O)[C@H](O)[C@@H](NC(=O)OC(C)(C)C)c4ccccc4)C[C@@](O)([C@@H](OC(=O)c4ccccc4)[C@H]21)C3(C)C` [Docetaxel] + c1cc(-c2cnn3cc(-c4ccc(OCCN5CCCCC5)cc4)cnc23)ccn1 [Dorsomorphin] (first compound 0.0001 µM, partner dose 0.4 µM) was 461%.
Take `CS(=O)(=O)c1ccc(C(=O)Nc2ccc(Cl)c(-c3ccccn3)c2)c(Cl)c1` [vismodegib] + O=C(Nc1ccccc1)c1cc([N+](=O)[O-])ccc1Cl [GW9662] (first compound 1 µM, partner dose 2 µM): the “cleaved PARP positive nuclei fraction” value was determined as 59.7%.
Then `NC(=O)c1ccc(N(C(N)=O)c2c(F)cccc2F)nc1-c1ccc(F)cc1F` + COc1ccc(-c2ccc3c(N4CCOCC4)nc(N4C[C@@H](C)O[C@@H](C)C4)nc3n2)cc1CO [KU0063794] (first compound 0.4 µM, partner dose 0.02 µM), with 94.4%; and `CN(c1ncccc1CNc1nc(Nc2ccc3c(c2)CC(=O)N3)ncc1C(F)(F)F)S(C)(=O)=O` + Oc1nc(-c2ccc(C(F)(F)F)cc2)nc2c1CSCC2 [XAV939] (first compound 0.08 µM, partner dose 2 µM), with 45.8%.
`CS(=O)(=O)c1ccc(C(=O)Nc2ccc(Cl)c(-c3ccccn3)c2)c(Cl)c1` [vismodegib] + COC(=O)c1sccc1S(=O)(=O)Nc1ccc(Nc2ccccc2)cc1OC [GSK0660] (first compound 1 µM, partner dose 1 µM): the “cleaved PARP positive nuclei fraction” value was determined as 58%.
Then `Cn1sc(=O)n(Cc2ccccc2)c1=O` + O=C(O)C(=O)Nc1sc2c(c1C(=O)O)CCNC2 [TCS401] (first compound 0.4 µM, partner dose 1.66667 µM), with 88.8%.
Take `Cn1cnc2c(F)c(Nc3ccc(Br)cc3Cl)c(C(=O)NOCCO)cc21` [selumetinib] + N#Cc1c(O)c2c(-c3ccc(-c4ccccc4O)cc3)csc2[nH]c1=O [A769662] (first compound 0.015 µM, partner dose 2 µM): the “cleaved PARP positive nuclei fraction” value is 90.7%.
The value for `CCN(CC)CCNC(=O)c1c(C)[nH]c(/C=C2\C(=O)Nc3ccc(F)cc32)c1C` [sunitinib] + N#Cc1c(O)c2c(-c3ccc(-c4ccccc4O)cc3)csc2[nH]c1=O [A769662] (first compound 0.4 µM, partner dose 2 µM) was 237%; that for `CS(=O)(=O)c1ccc(C(=O)Nc2ccc(Cl)c(-c3ccccn3)c2)c(Cl)c1` [vismodegib] + Cn1cc(/C=C2\C(=O)Nc3cccnc32)c2ccccc21 [GW441756] (first compound 1 µM, partner dose 0.4 µM) was 265%.
In the case of `COc1ccc(C2=N[C@@H](c3ccc(Cl)cc3)[C@@H](c3ccc(Cl)cc3)N2C(=O)N2CCNC(=O)C2)c(OC(C)C)c1` [Nutlin-3] + Cn1cc(/C=C2\C(=O)Nc3cccnc32)c2ccccc21 [GW441756] (first compound 0.1 µM, partner dose 0.4 µM), the “cleaved PARP positive nuclei fraction” value turned out to be 130%.
The value for `COc1ccc(C2=N[C@@H](c3ccc(Cl)cc3)[C@@H](c3ccc(Cl)cc3)N2C(=O)N2CCNC(=O)C2)c(OC(C)C)c1` [Nutlin-3] + COc1ccc(COc2ccc(Cc3cnc(N)nc3N)cc2OC)cc1 [GW2580] (first compound 0.1 µM, partner dose 1 µM) was 92.9%; that for `C[C@@H](N)c1ccc(C(=O)Nc2ccnc3[nH]ccc23)cc1` + O=C1NC(=O)/C(=C/c2ccc(-c3ccc(F)cc3O)o2)S1 [AS252424] (first compound 0.4 µM, partner dose 1 µM) was 57.4%; that for `C[C@]1(O)C[C@@H](c2nc(-c3ccc4ccc(-c5ccccc5)nc4c3)c3c(N)nccn32)C1` + Oc1cc(-c2nc(-c3ccccc3)[nH]c2-c2ccncc2)ccc1Cl [L779450] (first compound 0.4 µM, partner dose 0.2 µM) was 60%.
The value for `CCCCCCCCc1ccc(CCC(N)(CO)CO)cc1` [fingolimod] + COC(=O)c1sccc1S(=O)(=O)Nc1ccc(Nc2ccccc2)cc1OC [GSK0660] (first compound 2 µM, partner dose 1 µM) was 32.6%; that for `CCN(CC)CCNC(=O)c1c(C)[nH]c(/C=C2\C(=O)Nc3ccc(F)cc32)c1C` [sunitinib] + O=C1NC(=O)/C(=C/c2ccc(-c3ccc(F)cc3O)o2)S1 [AS252424] (first compound 0.4 µM, partner dose 1 µM) was 101%.
Then `NC1(c2ccc(-c3nc4ccn5c(=O)[nH]nc5c4cc3-c3ccccc3)cc2)CCC1` + CC(C)CCN1c2nc(Nc3cc(F)c(O)c(F)c3)ncc2N(C)C(=O)C1C [BID1870] (first compound 0.4 µM, partner dose 0.2 µM), with 150%.
Regarding `CC(=O)O[C@@]12CO[C@@H]1C[C@H](O)[C@@]1(C)C(=O)[C@H](O)C3=C(C)[C@@H](OC(=O)[C@H](O)[C@@H](NC(=O)OC(C)(C)C)c4ccccc4)C[C@@](O)([C@@H](OC(=O)c4ccccc4)[C@H]21)C3(C)C` [Docetaxel] + CCCCCCCCCCCC1=C(O)C(=O)C=C(O)C1=O [Embelin] (first compound 0.0001 µM, partner dose 1.2 µM), the “cleaved PARP positive nuclei fraction” value worked out at 476%.
Then `Cn1cnc2c(F)c(Nc3ccc(Br)cc3Cl)c(C(=O)NOCCO)cc21` [selumetinib] + COc1ccc(COc2ccc(Cc3cnc(N)nc3N)cc2OC)cc1 [GW2580] (first compound 0.015 µM, partner dose 1 µM), with 274%; and `C[C@]1(O)C[C@@H](c2nc(-c3ccc4ccc(-c5ccccc5)nc4c3)c3c(N)nccn32)C1` + O=C(O)C(=O)Nc1sc2c(c1C(=O)O)CCNC2 [TCS401] (first compound 0.4 µM, partner dose 1.66667 µM), with 213%.
For the molecule `CCN(CC)CCNC(=O)c1c(C)[nH]c(/C=C2\C(=O)Nc3ccc(F)cc32)c1C` [sunitinib] + c1cc(-c2cnn3cc(-c4ccc(OCCN5CCCCC5)cc4)cnc23)ccn1 [Dorsomorphin] (first compound 0.4 µM, partner dose 0.4 µM), the “cleaved PARP positive nuclei fraction” value stood at 126%.
Turning to `CC1(C)CCC(c2ccc(Cl)cc2)=C(CN2CCN(c3ccc(C(=O)NS(=O)(=O)c4ccc(N[C@H](CCN5CCOCC5)CSc5ccccc5)c(S(=O)(=O)C(F)(F)F)c4)cc3)CC2)C1` + COc1cc(N2CCC(N3CCN(C)CC3)CC2)ccc1Nc1ncc(Cl)c(Nc2ccccc2S(=O)(=O)C(C)C)n1 [NVP-TAE684] (first compound 0.4 µM, partner dose 0.08 µM), the “cleaved PARP positive nuclei fraction” value is 189%.
Take `Cn1sc(=O)n(Cc2ccccc2)c1=O` + CCN(CC)CCCCNc1ncc2cc(-c3cc(OC)cc(OC)c3)c(NC(=O)NC(C)(C)C)nc2n1 [PD173074] (first compound 0.4 µM, partner dose 0.1 µM): the “cleaved PARP positive nuclei fraction” value is 60.4%.
Then `CCN(CC)CCNC(=O)c1c(C)[nH]c(/C=C2\C(=O)Nc3ccc(F)cc32)c1C` [sunitinib] + CCCCCCCCCCCC1=C(O)C(=O)C=C(O)C1=O [Embelin] (first compound 0.4 µM, partner dose 1.2 µM), with 141%.
